For eight compounds, T/C and survivor count results are on record in PubChem BioAssay AID248 (DTP/NCI, 2004).

Molecules are shown by their SMILES. The list does not hold the whole screen: it is rich in T/C values a quarter to a half above the control, in often repeated tests (any T/C) and in doses without a T/C. Other doses and runs of a compound stand elsewhere. T/C gives the treated animals as a percentage of the vehicle group. Some doses have a count of surviving animals in place of a T/C: the source files T/C as zero there, which appears to mark a toxic dose or a test without result, not a measured value. Some doses without a T/C left all or most animals alive at the check, yet need not have been tolerated: survival well below the control is almost never listed, so the zero probably covers shortened survival too. Survivors were counted at the toxicity check, usually on the fifth day, unless a day is given; later deaths do not show. Schedule codes are those of the source, taken here to give the interval after Q, in days (D) or hours (H), and the number of doses after X. Some schedule codes hold Z or #, which are not explained here. Some doses were run more than once; the values are given in rising order. Where survival is the endpoint, the PubChem record calls one and a half times the control and up active, and a quarter to a half above the control has no call in these data; cut-offs in other NCI protocols can differ. Some T/C values carry the count of animals alive at the toxicity check (mostly the fifth day); where none is given, no animal had died by that day.

The test system of the assay is L1210 leukemia ip in BDF1 mice, survival T/C. As to the kind of experiment: NCI In Vivo Anticancer Drug Screen. Data for tumor model L1210 Leukemia (intraperitoneal) in B6D2F1 (BDF1) mice. The note with it: higher T/C = longer survival.
[1] abbreviates: T/C endpoint: mean survival time, dose: 50.0 mg/kg/injection, schedule: Q01DX009 (ip), vehicle: saline with Tween-80.

On to `C[n+]1c2ccccc2nc2c(N)cc(N)cc21`, for which the T/C by setting is: (T/C endpoint: mean survival time, dose: 10.0 mg/kg/injection, schedule: Q#A X030 (ip), vehicle: water) 139 % of control; (T/C endpoint: mean survival time, dose: 10.0 mg/kg/injection, schedule: Q#A X Z (ip), vehicle: water) 134 % of control; (T/C endpoint: mean survival time, dose: 15.0 mg/kg/injection, schedule: Q#A X Z (ip), vehicle: carboxymethylcellulose (CMC)) 130 % of control [5 of 6 alive]; (T/C endpoint: mean survival time, dose: 15.0 mg/kg/injection, schedule: Q#A X Z (ip), vehicle: water) 145 % of control; (T/C endpoint: mean survival time, dose: 18.0 mg/kg/injection, schedule: Q01DX Z (ip), vehicle: saline) 139 % of control; (T/C endpoint: mean survival time, dose: 20.0 mg/kg/injection, schedule: Q01DX009 (ip), vehicle: saline) 133 % of control. Further, the T/C was 132 % of control [4 of 6 alive] (T/C endpoint: mean survival time, dose: 20.0 mg/kg/injection, schedule: Q01DX Z (ip), vehicle: carboxymethylcellulose (CMC)); 109, 115, 118, 130 % of control (T/C endpoint: mean survival time, dose: 25.0 mg/kg/injection, schedule: Q01DX001 (ip), vehicle: water); 127 and 135 % of control (T/C endpoint: mean survival time, dose: 32.0 mg/kg/injection, schedule: Q01DX009 (ip), vehicle: saline); 129 % of control (T/C endpoint: mean survival time, dose: 32.0 mg/kg/injection, schedule: Q03HX024 (ip), vehicle: saline); 130 % of control (T/C endpoint: mean survival time, dose: 64.0 mg/kg/injection, schedule: Q04DX003 (ip), vehicle: saline); 126 % of control [4 of 6 alive] (T/C endpoint: mean survival time, dose: 80.0 mg/kg/injection, schedule: Q01DX Z (oral), vehicle: saline). Besides, the T/C runs as follows: (T/C endpoint: median survival time, dose: 10.0 mg/kg/injection, schedule: Q01DX009 (ip), vehicle: saline) 133 % of control; (T/C endpoint: median survival time, dose: 20.0 mg/kg/injection, schedule: Q01DX009 (ip), vehicle: saline) 130 and 140 % of control. Also, the survivor count by setting is: (T/C endpoint: mean survival time, dose: 16.0 mg/kg/injection, schedule: Q01DX007 (iv), vehicle: saline) 3 of 6; (T/C endpoint: mean survival time, dose: 26.4 mg/kg/injection, schedule: Q03DX Z (ip), vehicle: carboxymethylcellulose (CMC)) 3 of 6; (T/C endpoint: mean survival time, dose: 30.0 mg/kg/injection, schedule: Q01DX Z (ip), vehicle: carboxymethylcellulose (CMC)) 2 of 6; (T/C endpoint: mean survival time, dose: 32.0 mg/kg/injection, schedule: Q01DX007 (iv), vehicle: saline) 0 of 6; (T/C endpoint: mean survival time, dose: 32.0 mg/kg/injection, schedule: Q03HX008 (ip), vehicle: saline) 3 of 10; (T/C endpoint: mean survival time, dose: 33.75 mg/kg/injection, schedule: Q#A X Z (ip), vehicle: water) 3 of 6. In addition, the survivor count is, setting by setting: (T/C endpoint: mean survival time, dose: 39.9 mg/kg/injection, schedule: Q03DX Z (ip), vehicle: carboxymethylcellulose (CMC)) 2 of 6; (T/C endpoint: mean survival time, dose: 40.0 mg/kg/injection, schedule: Q01DX009 (ip), vehicle: saline) 0 of 6; (T/C endpoint: mean survival time, dose: 40.0 mg/kg/injection, schedule: Q01DX Z (im), vehicle: saline) 2 of 6; (T/C endpoint: mean survival time, dose: 50.6 mg/kg/injection, schedule: Q#A X Z (ip), vehicle: water) 0 of 6; (T/C endpoint: mean survival time, dose: 60.0 mg/kg/injection, schedule: Q03DX Z (ip), vehicle: carboxymethylcellulose (CMC)) 0 of 6; (T/C endpoint: mean survival time, dose: 64.0 mg/kg/injection, schedule: Q01DX009 (sc), vehicle: saline) 5 of 10. The survivor count (T/C endpoint: mean survival time, dose: 64.0 mg/kg/injection, schedule: Q03HX016 (ip), vehicle: saline) is 3 of 10; the survivor count (T/C endpoint: mean survival time, dose: 90.0 mg/kg/injection, schedule: Q03DX Z (ip), vehicle: carboxymethylcellulose (CMC)) is 0 of 6; the survivor count (T/C endpoint: mean survival time, dose: 100.0 mg/kg/injection, schedule: Q01DX001 (ip), vehicle: water) is 1 of 6; the survivor count (T/C endpoint: mean survival time, dose: 128.0 mg/kg/injection, schedule: Q01DX001 (ip), vehicle: saline) is given as 5 of 10; the survivor count (T/C endpoint: mean survival time, dose: 128.0 mg/kg/injection, schedule: Q01DX009 (ip), vehicle: saline) is recorded as 0 of 10; the survivor count (T/C endpoint: mean survival time, dose: 128.0 mg/kg/injection, schedule: Q01DX009 (sc), vehicle: saline) is reported as 0 of 10. Moreover, the survivor count reads like this: (T/C endpoint: mean survival time, dose: 128.0 mg/kg/injection, schedule: Q01DX Z (sc), vehicle: steroid suspending solution) 1 of 6; (T/C endpoint: mean survival time, dose: 128.0 mg/kg/injection, schedule: Q04DX003 (ip), vehicle: saline) 6 of 10; (T/C endpoint: mean survival time, dose: 160.0 mg/kg/injection, schedule: Q01DX Z (oral), vehicle: saline) 1 of 6; (T/C endpoint: mean survival time, dose: 200.0 mg/kg/injection, schedule: Q01DX001 (ip), vehicle: water) 0 of 6 and 1 of 6; (T/C endpoint: mean survival time, dose: 210.0 mg/kg/injection, schedule: Q07DX Z (ip), vehicle: carboxymethylcellulose (CMC)) 1 of 6; (T/C endpoint: mean survival time, dose: 256.0 mg/kg/injection, schedule: Q01DX001 (ip), vehicle: saline) 0 of 10. In addition, the survivor count is, setting by setting: (T/C endpoint: mean survival time, dose: 256.0 mg/kg/injection, schedule: Q04DX003 (ip), vehicle: saline) 0 of 10; (T/C endpoint: mean survival time, dose: 512.0 mg/kg/injection, schedule: Q01DX001 (sc), vehicle: saline) 5 of 10; (T/C endpoint: mean survival time, dose: 648.0 mg/kg/injection, schedule: Q01DX Z (oral), vehicle: other) 5 of 6; (T/C endpoint: mean survival time, dose: 972.0 mg/kg/injection, schedule: Q01DX Z (oral), vehicle: other) 5 of 6; (T/C endpoint: mean survival time, dose: 1024.0 mg/kg/injection, schedule: Q01DX009 (oral), vehicle: saline) 6 of 10.

Take `CC(=O)OCC1OC(OC2C(COC(C)=O)OC(Sc3ccccc3)C(OC(C)=O)C2OC(C)=O)C(OC(C)=O)C(OC(C)=O)C1OC(C)=O` (configuration not stated): the survivor count reads like this: (T/C endpoint: mean survival time, dose: 6.25 mg/kg/injection, schedule: Q01DX009 (ip), vehicle: saline with Tween-80) 3 of 3; (T/C endpoint: mean survival time, dose: 12.5 mg/kg/injection, schedule: Q01DX009 (ip), vehicle: saline with Tween-80) 3 of 3; under setting [1], 3 of 3; (T/C endpoint: mean survival time, dose: 100.0 mg/kg/injection, schedule: Q04DX003 (ip), vehicle: saline with Tween-80) 3 of 3.

Consider `Nc1nc(=O)n(CCCOc2ccccc2)cc1-c1ccc(Cl)c(Cl)c1`, for which the survivor count (T/C endpoint: mean survival time, dose: 400.0 mg/kg/injection, schedule: Q01DX001 (ip), vehicle: gum acacia) is 6 of 6.

With `CC1CC(C)(C)NCCNC(C)CC(C)(C)NCCN1` (configuration not stated), the survivor count (T/C endpoint: mean survival time, dose: 100.0 mg/kg/injection, schedule: Q04DX002 (ip), vehicle: Klucel (hydroxypropylcellulose) (HPC)) is 0 of 3; the survivor count (T/C endpoint: mean survival time, dose: 200.0 mg/kg/injection, schedule: Q04DX002 (ip), vehicle: Klucel (hydroxypropylcellulose) (HPC)) is recorded as 0 of 3; the survivor count (T/C endpoint: mean survival time, dose: 400.0 mg/kg/injection, schedule: Q04DX002 (ip), vehicle: Klucel (hydroxypropylcellulose) (HPC)) is reported as 0 of 3.

As to `CCOC(=O)C(O)c1ccc[nH]1` (configuration not stated), the survivor count (T/C endpoint: mean survival time, dose: 200.0 mg/kg/injection, schedule: Q04DX003 (ip), vehicle: saline with Tween-80) is on record as 6 of 6.

As to `CN(CCS(=O)(=O)O)/N=C/c1ccc2c(c1)OCO2`, the survivor count is, setting by setting: (T/C endpoint: mean survival time, dose: 200.0 mg/kg/injection, schedule: Q01DX001 (ip), vehicle: saline with Tween-80) 6 of 6; (T/C endpoint: mean survival time, dose: 400.0 mg/kg/injection, schedule: Q01DX001 (ip), vehicle: saline with Tween-80) 6 of 6.

Regarding `CC(Cc1ccccc1)n1c(-c2ccccc2)c[n+]2ccccc12` (configuration not stated), the survivor count is, setting by setting: (T/C endpoint: mean survival time, dose: 9.38 mg/kg/injection, schedule: Q01DX001 (ip), vehicle: other) 1 of 6; (T/C endpoint: mean survival time, dose: 18.75 mg/kg/injection, schedule: Q01DX001 (ip), vehicle: other) 0 of 6; (T/C endpoint: mean survival time, dose: 37.5 mg/kg/injection, schedule: Q01DX001 (ip), vehicle: other) 0 of 6; (T/C endpoint: mean survival time, dose: 75.0 mg/kg/injection, schedule: Q01DX001 (ip), vehicle: other) 0 of 6; (T/C endpoint: mean survival time, dose: 150.0 mg/kg/injection, schedule: Q01DX001 (ip), vehicle: other) 0 of 6; (T/C endpoint: mean survival time, dose: 300.0 mg/kg/injection, schedule: Q01DX001 (ip), vehicle: other) 0 of 6.

As for `Cc1cc(C)c(C(Cl)(Cl)Cl)c(C)c1Cl`, the T/C under setting [1] was 125 % of control. For the same compound, the survivor count (T/C endpoint: mean survival time, dose: 400.0 mg/kg/injection, schedule: Q04DX003 (ip), vehicle: saline with Tween-80) is 4 of 6.
